According to the supplement of paper PMC7824004:
Some of the results follow. The data scatter; read single values as rough.

What follows are compounds tested on Candida albicans SN425 (assay: biofilm OD600 B-score; higher = more biofilm (less inhibition)). Details: 10 µM; assay detail: High-throughput adherence inhibition optical density biofilm assay with C. albicans SN425 in RPMI-1640/MOPS pH 7.0, 384-well plates. ….
Experimental: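 High-throughput adherence inhibition optical density biofilm assay with C. albicans SN425 in RPMI-1640/MOPS pH 7.0, 384-well plates. Compound (10 µM) was present only during the 90 min adherence step, then washed out, and the biofilm grew 24 h without compound. Biofilm was read as OD600 after removing the media. Scores are the difference from the mean in standard deviations and the plate B-score.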
`O=C(c1ccccc1C(=O)N1CCOCC1)N1CCOCC1` was tested, and the “biofilm OD600 B-score” value was -1.18. In the case of `CC1CCc2c(sc(NC(=O)c3cnccn3)c2C(N)=O)C1` (stereo not given), the “biofilm OD600 B-score” value is reported as 0.621. `CC1CN(C(=O)c2cccs2)C(C)CN1C(=O)c1cccs1` (stereo not given) was tested, and the “biofilm OD600 B-score” value was -0.92. For `Cc1cccc(/C=C/c2ccc3cccc(O)c3n2)c1O`, the “biofilm OD600 B-score” value was -3.52. `O=C(NCc1cccs1)c1ccc2c(c1)OCO2` was tested, and the “biofilm OD600 B-score” value was -1.39. In the case of `OC(COc1ccccc1)Cn1ccnc1` (stereo not given), the “biofilm OD600 B-score” value is reported as 0.985. `CC(=O)Nc1ccccc1NC(=O)COc1ccc(C)c(C)c1` was tested, and the “biofilm OD600 B-score” value was -0.993. `COc1ccc(NC(=O)Cc2cccs2)cc1OC` was tested, and the “biofilm OD600 B-score” value was 1.71. For `CN(CC(=O)NCC1CCCO1)S(=O)(=O)c1ccc(Cl)cc1` (stereo not given), the “biofilm OD600 B-score” value was 0.76. With `CC(=O)c1cccc(NC(=O)CN2C(=O)C3C4CCC(C4)C3C2=O)c1` (stereo not given) the “biofilm OD600 B-score” value was -2.64. In the case of `CCn1cc(CNC(=O)c2ccc(C)s2)cn1`, the “biofilm OD600 B-score” value is reported as -0.0876. `CCOC(=O)Nc1cccc(Nc2ccccc2)c1` was tested, and the “biofilm OD600 B-score” value was 1.76. In the case of `c1ccc(-c2csc(NCc3ccco3)n2)nc1`, the “biofilm OD600 B-score” value is reported as -2.28. With `Cc1occc1C(=O)NCCCn1ccnc1` the “biofilm OD600 B-score” value was -2.23. `O=C(Nc1ccccc1)Nc1ccccc1Cl` was tested, and the “biofilm OD600 B-score” value was 4.48. With `N#CCCn1[nH]c(-c2ccccc2)cc1=O` the “biofilm OD600 B-score” value was 1.83. `COc1ccc(C(=O)Nc2cccc(NC(C)=O)c2)cc1OC` was tested, and the “biofilm OD600 B-score” value was 1.45. `CN1CCCC1CCNC1CC2CCC1C2` (stereo not given) was tested, and the “biofilm OD600 B-score” value was -0.107. For `Cc1ccc(SCC(=O)N2CCC(C(N)=O)CC2)cc1`, the “biofilm OD600 B-score” value was -2.72. In the case of `COc1ccccc1/C=C/CN1CCN(C)CC1`, the “biofilm OD600 B-score” value is reported as 0.238. For `Cc1cc(NC(=O)c2sc3cc(F)ccc3c2Cl)no1`, the “biofilm OD600 B-score” value was 0.761. With `COc1ccccc1C(=O)NCCN1CCOCC1` the “biofilm OD600 B-score” value was -0.0511. For `O=C(O)c1ccc(CNC(=O)C2CCCCC2C(=O)O)cc1` (stereo not given), the “biofilm OD600 B-score” value was 0.621. With `COc1cccc(OCC(O)CN(C)C2CCCCC2)c1` (stereo not given) the “biofilm OD600 B-score” value was -1.51. `O=S(=O)(Nc1ccc(F)cc1)c1ccccc1` was tested, and the “biofilm OD600 B-score” value was -0.392. `COc1ccc(OCC(=O)Nc2cccc(C(=O)O)c2C)cc1` was tested, and the “biofilm OD600 B-score” value was 2.31. In the case of `C/C(=C\c1ccccc1)CN(C)C1CCN(C)CC1`, the “biofilm OD600 B-score” value is reported as -1.32. For `CN(CC(O)COc1ccc(F)cc1)C1CCCCC1` (stereo not given), the “biofilm OD600 B-score” value was 0.746. `CC(=O)NCCc1ccc(S(=O)(=O)N2CCCC2)cc1` was tested, and the “biofilm OD600 B-score” value was 1.48. In the case of `O=C(O)c1ccccc1-c1ccccc1C(=O)Nc1ccccc1`, the “biofilm OD600 B-score” value is reported as 0.246. In the case of `COC(=O)N1CCN(c2cccc(Cl)c2)CC1`, the “biofilm OD600 B-score” value is reported as -1.89. In the case of `COc1ccc(S(=O)(=O)Nc2ccccc2C(=O)NC(C)C)cc1`, the “biofilm OD600 B-score” value is reported as 0.697. In the case of `Cc1ccc(Nc2cc(-n3nc(C)cc3C)ncn2)c(C)c1`, the “biofilm OD600 B-score” value is reported as 2. With `O=C(Nc1ccccc1)Nc1ccc(C(=O)N2CCOCC2)cc1` the “biofilm OD600 B-score” value was -4.28. For `COc1cccc(NC(=O)c2ccc(C)o2)c1`, the “biofilm OD600 B-score” value was -2.64. In the case of `Nn1c(CCC(=O)O)nc2sc3c(c2c1=O)CCCC3`, the “biofilm OD600 B-score” value is reported as 0.0183. With `CC(C)NC1CS(=O)(=O)CC1O` (stereo not given) the “biofilm OD600 B-score” value was -0.583. For `COc1cccc(NC(=O)c2ccc(CN3CCOCC3)cc2)c1`, the “biofilm OD600 B-score” value was 0.0281. With `CC(C)C(=O)Nc1c2c(nc3ccccc13)N(C)CC2` the “biofilm OD600 B-score” value was -0.131. With `Cc1cc(Br)ccc1OCCN1CCN(C)CC1` the “biofilm OD600 B-score” value was -0.562.
